# Publication doi:10.1101/2024.04.26.591323
# Experiments:
# Experiment in all cases: pull-down
# [1] = target: T1, endogenous TG2 (primary HUVEC extract) (Homo sapiens) (UniProt P21980); conditions: 200 ug extract protein; protein in an extract
# T1 sequence (looked up, limits assumed): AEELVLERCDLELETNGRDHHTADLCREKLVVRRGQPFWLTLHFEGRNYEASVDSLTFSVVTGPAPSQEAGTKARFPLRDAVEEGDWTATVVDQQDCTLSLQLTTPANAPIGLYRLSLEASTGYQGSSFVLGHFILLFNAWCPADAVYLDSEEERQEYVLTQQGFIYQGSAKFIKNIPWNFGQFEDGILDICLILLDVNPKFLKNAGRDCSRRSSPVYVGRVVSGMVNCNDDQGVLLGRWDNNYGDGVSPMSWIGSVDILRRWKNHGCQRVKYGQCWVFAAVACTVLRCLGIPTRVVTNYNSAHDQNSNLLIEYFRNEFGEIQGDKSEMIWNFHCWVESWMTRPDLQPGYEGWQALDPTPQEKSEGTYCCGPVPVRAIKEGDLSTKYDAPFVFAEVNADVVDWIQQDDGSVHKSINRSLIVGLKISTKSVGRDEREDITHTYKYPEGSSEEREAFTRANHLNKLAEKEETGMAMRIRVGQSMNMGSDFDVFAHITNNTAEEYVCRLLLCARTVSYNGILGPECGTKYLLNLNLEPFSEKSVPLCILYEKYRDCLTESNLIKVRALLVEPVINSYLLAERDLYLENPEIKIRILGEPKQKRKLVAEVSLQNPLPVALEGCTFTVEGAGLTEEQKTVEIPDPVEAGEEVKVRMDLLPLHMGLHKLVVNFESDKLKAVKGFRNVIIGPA
# [2] = target: T2, endogenous TG2 (immortalised HUVEC extract) (Homo sapiens) (UniProt P21980); conditions: 200 ug extract protein; protein in an extract
# T2 sequence (looked up, limits assumed): T1 sequence (looked up, limits assumed)
# [3] = target: T3, TG2 (transglutaminase 2), His6-tagged (Homo sapiens) (UniProt P21980); conditions: 0.5 mM GTPgS (closed TG2)
# T3 sequence (looked up, limits assumed): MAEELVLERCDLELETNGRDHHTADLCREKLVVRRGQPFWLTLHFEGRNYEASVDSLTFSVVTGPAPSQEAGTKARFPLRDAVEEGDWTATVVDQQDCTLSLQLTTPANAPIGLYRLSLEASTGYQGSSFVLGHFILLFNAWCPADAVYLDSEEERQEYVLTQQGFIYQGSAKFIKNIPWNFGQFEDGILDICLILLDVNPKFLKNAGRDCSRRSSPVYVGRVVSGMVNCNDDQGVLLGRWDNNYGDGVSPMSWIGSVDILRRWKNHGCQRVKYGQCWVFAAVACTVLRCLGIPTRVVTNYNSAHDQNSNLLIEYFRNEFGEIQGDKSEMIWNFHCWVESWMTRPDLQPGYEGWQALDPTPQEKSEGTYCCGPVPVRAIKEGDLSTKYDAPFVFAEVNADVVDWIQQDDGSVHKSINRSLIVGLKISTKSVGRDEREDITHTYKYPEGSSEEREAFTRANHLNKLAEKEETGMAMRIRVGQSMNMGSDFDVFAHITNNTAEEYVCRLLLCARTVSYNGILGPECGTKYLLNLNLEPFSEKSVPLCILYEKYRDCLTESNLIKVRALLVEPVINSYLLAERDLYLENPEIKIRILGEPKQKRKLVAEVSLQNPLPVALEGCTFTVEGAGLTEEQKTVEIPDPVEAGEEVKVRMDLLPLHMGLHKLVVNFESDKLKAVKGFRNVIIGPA
sequence,measurement,setting,value
CCUGGUUUUUAAGGAGUGUCGCCAGAGUGCCGCGAAUGAAAAAC [43-mer RNA 3' End Biotin],binding result,[1],binds
same,binding result,[2],binds
same,binding result,[3],no binding

# For at least one entry, the source does not settle the construct or the ends of the probe. For part of these data: No signal at the amounts used counts as a negative. Tags and fusion partners may be left off the protein sequences shown. For part of these data: Where cells or extracts were used, other partners may take part.
